From PMC8429728, “TNK1 is a ubiquitin-binding and 14-3-3-regulated kinase that can be targeted to block tumor growth” (Nature Communications, 2021)

What was measured:
[1] = target: T1, FLAG-TNK1 (stably expressed in A549) (human) (UniProt Q13470); assay: co-IP; FLAG-TNK1 precipitated on FLAG resin from A549 cells stably expressing it, after siRNA (100 nM) against individual MARK kinases; immunoblotted for pS502 and 14-3-3
T1 sequence: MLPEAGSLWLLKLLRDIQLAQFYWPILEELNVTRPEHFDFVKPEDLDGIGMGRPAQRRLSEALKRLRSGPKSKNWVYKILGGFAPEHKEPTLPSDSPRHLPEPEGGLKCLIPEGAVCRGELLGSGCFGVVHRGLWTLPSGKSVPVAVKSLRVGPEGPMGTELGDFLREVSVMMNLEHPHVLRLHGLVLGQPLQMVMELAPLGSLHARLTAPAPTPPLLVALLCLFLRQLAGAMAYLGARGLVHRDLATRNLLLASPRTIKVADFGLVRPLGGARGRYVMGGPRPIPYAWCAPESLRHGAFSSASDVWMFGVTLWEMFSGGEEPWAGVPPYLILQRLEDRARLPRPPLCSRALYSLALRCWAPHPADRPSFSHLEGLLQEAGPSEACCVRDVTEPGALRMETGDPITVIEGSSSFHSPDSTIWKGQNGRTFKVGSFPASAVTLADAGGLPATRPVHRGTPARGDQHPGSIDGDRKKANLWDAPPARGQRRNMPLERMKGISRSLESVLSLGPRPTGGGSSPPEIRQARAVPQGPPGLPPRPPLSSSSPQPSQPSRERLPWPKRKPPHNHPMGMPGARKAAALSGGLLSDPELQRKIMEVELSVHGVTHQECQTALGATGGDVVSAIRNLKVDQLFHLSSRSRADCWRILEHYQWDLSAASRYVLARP

FLAG-TNK1 S68A (human) = target: T2, FLAG-TNK1 S68A (human) (UniProt Q13470); assay: co-IP; FLAG-TNK1 (WT or mutants) precipitated on anti-DYKDDDDK resin from HEK-293T lysate (10 mM HEPES KOH pH 7.5, 150 mM KCl, 0.01% IGEPAL), 1 h 4 °C, washed with PBS; immunoblotted for 14-3-3 or ubiquitin; in Fig. 2c cells treated with 1 uM kinase inhibitors for 4 h
T2 sequence: T1 sequence with S68A

FLAG-TNK1 S434A (human) = target: T3, FLAG-TNK1 S434A (human) (UniProt Q13470); assay: as above
T3 sequence: T1 sequence with S434A

binding [1]: binds
binding (FLAG-TNK1 S68A (human)): binds
binding (FLAG-TNK1 S434A (human)): binds
Substance: 14-3-3 (endogenous, isoform not told) (human (endogenous in HEK-293T or A549))

Where a chain is given by its changes, count along the chain named. No constants are given. Whether binding was seen depends on the method and setting. Binding seen in cells or lysates may run through a third protein. Binding calls can cover weak binding; strength is not graded here. Sequences can lack the tags named with a protein.
